# Library screen at single concentrations

The filed quantity is “Percent Effect” (%).
The controls that fix the scale are not given in the record; negative values are as filed.
Compounds were drawn at random from those tested, without regard to their results.

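Whole-parasite assay of Trypanosoma brucei over 72 hours; the read-out is not stated. Concentration: 10 µM. The record gives no direction; compounds that gave an IC50 in retests scored well above the rest, so higher reads as stronger inhibition. Values scatter widely below zero; nearly all retest evidence comes from the higher of the two concentrations used. Size under these conditions: about 2,700 compounds, about 14 of them at 50% or above in at least one test.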

SMILES	Percent Effect
CCOc1ccnc(N2CCN(C(=O)c3cnc[nH]3)CC2)n1	-22.9%
CCc1nc(CN(C(C)=O)C2CCN(CC3CCOCC3)C2)no1 (stereo unspecified)	-20.35%
CN(Cc1cccs1)C(=O)CN1CCCC(Cn2cncn2)C1 (stereo unspecified)	-38.51%
CCCC(=O)N(C)C(c1cccc(F)c1)c1ccccn1 (stereo unspecified)	-34.57%
Cn1ccnc1CN1CCCC1Cn1cccn1 (stereo unspecified)	-49.84%
Cc1cnn(CC2CCCCN2C(=O)c2cccc(C(N)=O)c2)c1 (stereo unspecified)	-50.92%
CCCNC(=O)C1CCN(Cc2csc(C(C)C)n2)CC1	-20.41%
Cn1ccnc1CN1CCN(Cc2ccc(C#N)cc2F)CC1	-72.84%
Cc1csc(N2CCN(CC(=O)N3CCCC3)CC2C)n1 (stereo unspecified)	-77.5%
CCN1CCN(CCNC(=O)c2sc(C)nc2C)CC1	-49.67%
Cc1nc(CN(C)C2CCN(CCCOc3ccccc3C)C2)no1 (stereo unspecified)	-27.22%
Cn1nccc1C1CCN(CC(=O)NCC2CC2)CC1	-5.864%
CC(C(=O)NC(N)=O)N(C)CCCc1cc(-c2ccccc2)no1 (stereo unspecified)	-34.06%
O=C(CCOc1cccc(Cl)c1)N1CCN(c2cnccn2)CC1	-12.74%
Cc1csc(C2CCCCN2C(=O)CN(C)C(C)C)n1 (stereo unspecified)	-34%
CCn1cc(CN2CCCN(C(=O)c3c(C)oc(C)c3C)CC2)cn1	-54.98%
CSc1ccc(CNC(c2ccc(F)cc2)c2nccn2C)cc1 (stereo unspecified)	-48.69%
COC(=O)c1cccn1C1CCN(Cc2nc3ccccc3o2)CC1	-27.79%
Cn1cc(CC2CCN(C(=O)NCc3cccc(C#N)c3)C2)cn1 (stereo unspecified)	-11.77%
CN(CC(=O)N1CCC(N(C)c2ccccc2)CC1)c1cnccn1	-37.04%
O=C(NCc1ccccc1-n1cccn1)N1CCC(N2CCCC2)C1 (stereo unspecified)	-34.34%
Cn1ccc(C(=O)NCc2ccc(N3CCCCCC3)nc2)cc1=O	-21.4%
CC(C)c1nc(C2CCCN2Cc2cc(=O)n(C)c(=O)n2C)no1 (stereo unspecified)	-43.3%
CCn1ncc2c1CCCC2NCc1ccc(OC)cc1OC (stereo unspecified)	2.292%
c1ccc(OCCN2CCc3c(ncn3C3CC3)C2)cc1	-13.55%
Cc1cnn(CC2CN(Cc3nc(C)c4ccccc4n3)CCO2)c1 (stereo unspecified)	-21.67%
Cn1cc(CC2CCN(C(=O)NCc3cccc(C(N)=O)c3)C2)cn1 (stereo unspecified)	-49.39%
CCCc1noc(CN2CCC(N(C)Cc3nnc(C4CC4)o3)C2)n1 (stereo unspecified)	-36.94%
CCc1nc(C2CCCN2C(=O)c2ccc(N3CCCC3)nn2)no1 (stereo unspecified)	-41.13%
CC(c1cccc(S(N)(=O)=O)c1)N(C)CCCOc1ccccc1 (stereo unspecified)	-35.71%
Cc1cc(CN2CCCC(c3cc(C(F)(F)F)[nH]n3)C2)no1 (stereo unspecified)	-10.73%
O=C1NCCN1C1CCN(CCOc2cccc3ccccc23)CC1	-62.81%
Cc1nc2cc(=O)[nH]n2c(C)c1CC(=O)NCc1ccoc1	-20.07%
CC(C)OCCCNC(=O)CS(=O)(=O)Cc1ccc(C(C)(C)C)cc1	-24.41%
CC(C)CCOCCNC(=O)Nc1ccc(F)c(C(N)=O)c1	-61.29%
CC(NC(=O)N(C)CCCOc1ccccc1)c1nncn1C (stereo unspecified)	-27.54%
O=C(Nc1cc(C(F)(F)F)c[nH]c1=O)N1CCSCC1	-31.85%
CN(C)c1ncccc1CNC(=O)NCc1cccs1	-25.15%
Cc1cc(C)n(CC2CN(Cc3noc(C4CC4)n3)CCO2)n1 (stereo unspecified)	-70.45%
COCc1nc(C(=O)N2CCCC2c2cc(C)no2)cs1 (stereo unspecified)	-26.9%

5 of the entries, repeated:

SMILES,Percent Effect
CCOc1ccnc(N2CCN(C(=O)c3cnc[nH]3)CC2)n1,-22.9%
CC(C)OCCCNC(=O)CS(=O)(=O)Cc1ccc(C(C)(C)C)cc1,-24.41%
CC(C)c1nc(C2CCCN2Cc2cc(=O)n(C)c(=O)n2C)no1 (stereo unspecified),-43.3%
Cn1nccc1C1CCN(CC(=O)NCC2CC2)CC1,-5.864%
Cc1nc2cc(=O)[nH]n2c(C)c1CC(=O)NCc1ccoc1,-20.07%

Data taken from ChEMBL document CHEMBL3988442, “University of Dundee, Small-Polar-MMV Screening Library” (2021).